Laboratory results as given in PubChem BioAssay AID2685 (National Center for Advancing Translational Sciences (NCATS), 2010).
Hit rate of the full screen: of about 320,000 compounds, about 2,100 (0.66%) were called active. Calls follow the shape of the dose curve; as a rule, active = well fitted inhibition curve with a large enough effect in the signal ratio, with a control signal flat (not every such curve was filed as active); inconclusive = small, poorly fitted or top-dose-only effect, or effect the other way, or a change in a side signal; inactive = flat fitted curve, though single readings scatter; the % refers to the signal ratio. The inconclusive results got no clear call from the source. Potencies beside an inconclusive call are fits to weak or partial responses and may not hold up.

Test: qHTS Assay for Lipid Storage Modulators in Drosophila S3 Cells
Conditions: BODIPY lipid droplet fluorescence, 18-24 h, cells fed with added oleic acid; lipid storage change, negative = inhibition: at 46.1 µM (top of the series) unless noted
In short: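 Laser-scanning cytometry quantifies lipid droplet accumulation (500–530 nm total intensity; droplet/cell object ratio) in oleic acid-fed (400 uM added) Drosophila S3 cells treated with a concentration series. 20 uM Triacsin C defined 100% inhibition.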
% is scaled to controls: 0 for no effect and ±100 for the full control effect; potency is read from the fitted curve at half-maximal effect.

Potency, inconclusive:
Cc1cccc(NC(=O)CSc2nnc(CNC(=O)c3ccco3)n2C)c1 0.461 µM [activator, full curve, poor fit]
COCc1ccc(CN2CCCCC2C(=O)Nc2ccc(Oc3ccccc3)nc2)o1 (configuration not stated) 32.6 µM [falling, single point]
CC1CCN(S(=O)(=O)c2ccc3c(c2)N(CC(=O)NCCCN(Cc2ccccc2)C(C)C)C(=O)CO3)CC1 25.9 µM [falling, single point]
CCOc1ccc(Cn2nnc(C(=O)NCc3ccccc3)c2N)cc1 32.6 µM [rising, single point]
CCOC(=O)c1nnc2cc(-c3ccccc3)nn2c1C 4.11 µM [falling, full curve, poor fit]
O=C(c1ccc2c(c1)OCCO2)C1CCN(S(=O)(=O)c2ccccc2F)CC1 29.1 µM [falling, single point]

Lipid storage change, negative = inhibition, inconclusive:
O=C(Nc1cc(N2CCCCC2)ncn1)c1ccccc1 6.11%
CCOc1cc(CNCc2cc(OC)cc(OC)c2)ccc1OC -77.6%
Cc1ccccc1-n1c(SCC(=O)N(C)C2CCS(=O)(=O)C2)nc2ccccc2c1=O (configuration not stated) -29.6%
Cc1ccccc1Cn1cc(NC(=O)CCCn2nc([N+](=O)[O-])cc2C)cn1 -31.1%
O=C(CN(Cc1cccs1)C(=O)CNS(=O)(=O)c1ccc(Cl)cc1)NCc1ccco1 22.2%
CCOC(=O)C1=C(C)NC(SCC(=O)O)=C(C#N)C1c1ccco1 (configuration not stated) 18.7%
O=S(=O)(NCC(c1cccnc1)N1CCc2ccccc2C1)c1ccccc1 (configuration not stated) 1.01%
CC(C)Cn1c(SC(C)C(=O)NC2CC2)nnc1-c1ccccc1F (configuration not stated) 5.44%
COc1ccc(Cl)cc1NC(=O)C(=O)NCc1ccncc1 15.1%
Cc1ccc2c(c1)C(=O)CC1(CCCCCC1)O2 -40.1%
NS(=O)(=O)c1cc(C(=O)NCCc2ccccn2)ccc1Cl -14.8%
Cc1cccc(C(=O)N/N=C/C(C)Cc2ccc3c(c2)OCO3)c1 (configuration not stated) 20.5%
Oc1ccccc1C(=S)N1CCN(c2cccc(Cl)c2)CC1 -24.1%
CCc1nc(NCCO)c(C#N)c2c1CSC(C)(C)C2 10.7%
OCCC1CN(Cc2ccon2)CCN1Cc1ccccc1 (configuration not stated) 19.6%
CCOC(=O)NC(=O)CSc1nc(C)cc(C)c1C#N 23.1%

An excerpt from above in order of number of heavy atoms, high to low.
Lipid storage change, negative = inhibition, inconclusive:
Cc1ccccc1-n1c(SCC(=O)N(C)C2CCS(=O)(=O)C2)nc2ccccc2c1=O (configuration not stated) -29.6%
Cc1cccc(C(=O)N/N=C/C(C)Cc2ccc3c(c2)OCO3)c1 (configuration not stated) 20.5%
CCc1nc(NCCO)c(C#N)c2c1CSC(C)(C)C2 10.7%
